Measured values published in the supplement of paper PMC7125110.
± gives the standard error. The uncertainty is large for many entries.

B1: glmS ribozyme (parent)
chain: AUAAAAGCGCCAGAACUACAGAAAUGUAGUUGACGAGGAGGAGGUUUAUCGAAUUUUCGGCGGAUGCCUCCAAA

Variants of: B1
Assay: self-cleavage kobs at 640 uM GlcN6P; higher = faster cleavage; RNA array
Details: with glucosamine-6-phosphate
In short: (§1)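 Sequenced MiSeq chips were the platform: E. coli RNA polymerase transcribed barcoded ribozyme variants on them in situ, and a hybridised Cy3 probe tracked these at 37 °C. After glucosamine-6-phosphate (40 μM to 10 mM) in HEPES/KCl/Mg(OAc)2 buffer was flowed in, tiles were imaged over ~14 h. Signals normalised to baseline and to non-cleaving reference variants were reduced to per-tile medians and fit to one- or two-exponential decays to obtain kobs. kcat and KM were derived through weighted Michaelis–Menten fits across concentrations.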

Variant | self-cleavage kobs at 640 uM GlcN6P
U56G A64U C70U | 3.46e-05 ± 2.2e-05 s⁻¹
U57A A64U C67U U69G | 3.8e-05 ± 2.3e-05 s⁻¹
U57A C68A | 3.26e-05 ± 2.7e-05 s⁻¹
U57A C68U C70U | 6.7e-05 ± 3.5e-05 s⁻¹
U57A U69A | 2.79e-05 ± 1.9e-05 s⁻¹
U57C C58A C67G | 2.62e-05 ± 1.9e-05 s⁻¹
U57C C67G | 1.75e-05 ± 1.3e-05 s⁻¹
U57C C71A | 2.3e-05 ± 1.8e-05 s⁻¹
C58G G60A U69A C71A | 4.5e-05 ± 2.7e-05 s⁻¹
C58G G63C C71A | 2.7e-05 ± 2.7e-05 s⁻¹
C58U C71U | 2.03e-05 ± 1.3e-05 s⁻¹
C58U G59U C67A | 2.59e-05 ± 2e-05 s⁻¹
G59A C68G C70U | 3.71e-05 ± 3e-05 s⁻¹
G59C C67U | 0.00252 ± 0.0018 s⁻¹
G59U C67G | 1.42e-05 ± 1.4e-05 s⁻¹
G59U C67U U69A | 3.36e-05 ± 2e-05 s⁻¹
G59U C68G | 2.75e-05 ± 1.5e-05 s⁻¹
G59U G66A C70G | 2.99e-05 ± 2.5e-05 s⁻¹

Variant | self-cleavage kobs at 640 uM GlcN6P
G59U U65A C67A | 2.51e-05 ± 1.7e-05 s⁻¹
G60U C61A C71G | 2.69e-05 ± 2.2e-05 s⁻¹
C61A C68G | 2.36e-05 ± 1.7e-05 s⁻¹
C61A G63A C70G | 3.07e-05 ± 2.4e-05 s⁻¹
C61G C70G | 2.15e-05 ± 1.4e-05 s⁻¹
C61U U69G | 1.91e-05 ± 1.6e-05 s⁻¹
G62A C68A | 1.9e-05 ± 1.6e-05 s⁻¹
G62C C67U U69A | 2.86e-05 ± 2.2e-05 s⁻¹
G63A U69A | 2.87e-05 ± 2.5e-05 s⁻¹
A64C C71U | 2.14e-05 ± 1.1e-05 s⁻¹
A64C G66A | 1.7e-05 ± 1.6e-05 s⁻¹
A64U U69G | 4.27e-05 ± 2.3e-05 s⁻¹
U65C C67U | 2.16e-05 ± 1.4e-05 s⁻¹
U65C C71G | 2.09e-05 ± 1.5e-05 s⁻¹
U65C U69G | 3.75e-05 ± 1.9e-05 s⁻¹
U65G C68A | 3.33e-05 ± 2e-05 s⁻¹
C68A C71G | 0.00052 ± 0.00034 s⁻¹
C68G U69G | 2.22e-05 ± 1.8e-05 s⁻¹

Variants of: B1
Assay: self-cleavage kobs at 2500 uM GlcN6P; higher = faster cleavage; RNA array
Details: with glucosamine-6-phosphate
In short: as §1

Variant | self-cleavage kobs at 2500 uM GlcN6P
U56G A64U C70U | 1.54e-05 ± 1.2e-05 s⁻¹
U57A C68A | 2.53e-05 ± 2e-05 s⁻¹
G59A C68G C70U | 3.34e-05 ± 2.9e-05 s⁻¹
G59U C67G | 2.68e-05 ± 1.5e-05 s⁻¹
G59U C67U U69A | 3.61e-05 ± 2.1e-05 s⁻¹
G59U C68G | 2.42e-05 ± 1.4e-05 s⁻¹
C61A C68G | 1.76e-05 ± 1.6e-05 s⁻¹
C61U U69G | 1.93e-05 ± 1.4e-05 s⁻¹
G62C C67U U69A | 2.9e-05 ± 2.4e-05 s⁻¹
G63A U69A | 4.39e-05 ± 2.7e-05 s⁻¹
C11G C58A C68A | 3.45e-05 ± 2e-05 s⁻¹
C11U C34G C50G C67G C68U | 3.25e-05 ± 2.3e-05 s⁻¹
A12C G66C | 5.13e-05 ± 4.5e-05 s⁻¹
G13A C34G C50U C67G | 6.42e-05 ± 4.2e-05 s⁻¹
G13A C67G C68U | 4.76e-05 ± 2.4e-05 s⁻¹

Variants of: B1
Assay: self-cleavage kobs at 160 uM GlcN6P; higher = faster cleavage; RNA array
Details: with glucosamine-6-phosphate
In short: as §1

Variant | self-cleavage kobs at 160 uM GlcN6P
U57A C68A | 2.02e-05 ± 1.8e-05 s⁻¹
U57A U69A | 2.07e-05 ± 1.5e-05 s⁻¹
C61A C68G | 1.83e-05 ± 1.7e-05 s⁻¹
C61G C70G | 1.85e-05 ± 1.6e-05 s⁻¹
U65C U69G | 5.05e-05 ± 2.8e-05 s⁻¹
A6C U31G U69G | 2.42e-05 ± 2.2e-05 s⁻¹
A6G U65G | 1.38e-05 ± 1.3e-05 s⁻¹
A6U C50A U65A U69C | 2.87e-05 ± 2e-05 s⁻¹
A6U C71G | 1.88e-05 ± 1.3e-05 s⁻¹
C8G A36C C70G | 3.07e-05 ± 2.9e-05 s⁻¹
C8U A12U G37U C61A A64U C67G | 5.32e-05 ± 2.8e-05 s⁻¹
C8U C10U C58G G60A | 7.44e-05 ± 4e-05 s⁻¹
C8U G13A G35A G38A G63A C68U | 2.81e-05 ± 2.5e-05 s⁻¹
G9C A12C C50G U65G C71U | 3.03e-05 ± 2.8e-05 s⁻¹
C10A A12C | 1.11e-05 ± 1e-05 s⁻¹
C10A G13A C50A C58U C71G | 0.00033 ± 0.00017 s⁻¹
C10U A36U C70A | 2.68e-05 ± 1.9e-05 s⁻¹
C10U C34A U47G C50G C67G | 2.78e-05 ± 2.1e-05 s⁻¹
C11A A12U C16U C70U | 4.61e-05 ± 3.1e-05 s⁻¹
C11A A36U C70G | 2.89e-05 ± 1.7e-05 s⁻¹

Taken from the entries so far for reference:
Variant | self-cleavage kobs at 160 uM GlcN6P
C10U A36U C70A | 2.68e-05 ± 1.9e-05 s⁻¹
C10U C34A U47G C50G C67G | 2.78e-05 ± 2.1e-05 s⁻¹
C11A A12U C16U C70U | 4.61e-05 ± 3.1e-05 s⁻¹
C11A A36U C70G | 2.89e-05 ± 1.7e-05 s⁻¹

Next entries:

Variant | self-cleavage kobs at 160 uM GlcN6P
C11A A64G | 1.82e-05 ± 1.8e-05 s⁻¹
C11A C71U | 2.13e-05 ± 1.9e-05 s⁻¹
C11A U30G U54G | 2.73e-05 ± 1.7e-05 s⁻¹
C11A U31A | 1.98e-05 ± 1.7e-05 s⁻¹
C11A U69A | 4.25e-05 ± 2.8e-05 s⁻¹
C11G C58A C68A | 4.85e-05 ± 3.1e-05 s⁻¹
C11U C34G C50G C67G C68U | 2.23e-05 ± 1.7e-05 s⁻¹
C11U G40U | 1.65e-05 ± 1.6e-05 s⁻¹
A12C G32A | 1.51e-05 ± 1.5e-05 s⁻¹
A12C G66C | 5.14e-05 ± 2.7e-05 s⁻¹
A12G A39C A42U | 2.82e-05 ± 2.6e-05 s⁻¹
A12U C16U A33C | 2.25e-05 ± 1.1e-05 s⁻¹
A12U C50U C67G | 2.97e-05 ± 2.5e-05 s⁻¹
A12U C68A | 2.39e-05 ± 1.8e-05 s⁻¹
G13A A36G U69G | 0.000112 ± 5.7e-05 s⁻¹
G13A A39U | 1.93e-05 ± 1.8e-05 s⁻¹
G13A C34G C50U C67G | 2.91e-05 ± 2.7e-05 s⁻¹
G13A C67G C68U | 3.68e-05 ± 2e-05 s⁻¹
G13A U30C | 2.77e-05 ± 2.7e-05 s⁻¹
G13A U47A | 3.28e-05 ± 1.7e-05 s⁻¹

As entered above:
self-cleavage kobs at 160 uM GlcN6P with A12U C16U A33C reads 2.25e-05 ± 1.1e-05 s⁻¹
self-cleavage kobs at 160 uM GlcN6P with C11A A64G reads 1.82e-05 ± 1.8e-05 s⁻¹

Variants of: B1
Assay: self-cleavage kobs at 10000 uM GlcN6P; higher = faster cleavage; RNA array
Details: with glucosamine-6-phosphate
In short: as §1

Variant | self-cleavage kobs at 10000 uM GlcN6P
U57C C71A | 1.74e-05 ± 1.2e-05 s⁻¹
C11A A36U C70G | 3.79e-05 ± 2e-05 s⁻¹
C11A U69A | 2.16e-05 ± 1.9e-05 s⁻¹
A12U C68A | 0.00211 ± 0.0014 s⁻¹
